Some of these results come from one statement about several compounds together. At least one compound was matched to its structure with a doubt left.
Tested on: cellular DNA of HCT-116, HT-29, U251 xenografts, bone marrow, intestine, liver
Settings: po

## O=c1ncc(I)cn1[C@H]1C[C@H](O)[C@@H](CO)O1 [IPdR]
  % IUdR-DNA incorporation in normal liver: < 1%

Source: patent US11058702B2 (EMEK, Inc., priority 2014, dated 2021)
